Where two headings read alike, the source gives them in different places. These are yes or no findings as the source states them, for the method shown. Binding seen in cells or lysates may run through a third protein. Some results given as binding are weak or reduced against the parent protein; the word gives no strength.
Key:
[1] = target: IQ motif-containing GTPase activating protein 2 (IQGAP2), human, in HEK293T cells (human (endogenous in HEK293T)) (UniProt Q13576); assay: co-IP; HEK293T cell lysate in 1% NP-40 lysis buffer (25 mM Hepes pH 7.8, 150 mM NaCl, 5 mM EDTA, 0.5 mM CaCl2); protein A/G magnetic beads prebound with anti-IQGAP2 (ab181127, 3 ug) or IgG control, overnight; blots of the precipitate
[2] = target: IQ motif-containing GTPase activating protein 2 (IQGAP2), human, in HEK293T cells (human (endogenous in HEK293T)) (UniProt Q13576); assay: as above; remark: listed apart in the source
[3] = target: IQ motif-containing GTPase activating protein 2 (IQGAP2), mouse liver (mouse (endogenous in liver)) (UniProt Q3UQ44); assay: co-IP; wildtype mouse liver lysate (fed and 24-h fasted mice) in 1% NP-40 lysis buffer; protein A/G magnetic beads prebound with anti-IQGAP2 (ab181127, 3 ug) or IgG control, overnight; blot for GYS2

Sequences of proteins named here, by UniProt entry; tags and fusion partners are left off.
UniProt Q13576: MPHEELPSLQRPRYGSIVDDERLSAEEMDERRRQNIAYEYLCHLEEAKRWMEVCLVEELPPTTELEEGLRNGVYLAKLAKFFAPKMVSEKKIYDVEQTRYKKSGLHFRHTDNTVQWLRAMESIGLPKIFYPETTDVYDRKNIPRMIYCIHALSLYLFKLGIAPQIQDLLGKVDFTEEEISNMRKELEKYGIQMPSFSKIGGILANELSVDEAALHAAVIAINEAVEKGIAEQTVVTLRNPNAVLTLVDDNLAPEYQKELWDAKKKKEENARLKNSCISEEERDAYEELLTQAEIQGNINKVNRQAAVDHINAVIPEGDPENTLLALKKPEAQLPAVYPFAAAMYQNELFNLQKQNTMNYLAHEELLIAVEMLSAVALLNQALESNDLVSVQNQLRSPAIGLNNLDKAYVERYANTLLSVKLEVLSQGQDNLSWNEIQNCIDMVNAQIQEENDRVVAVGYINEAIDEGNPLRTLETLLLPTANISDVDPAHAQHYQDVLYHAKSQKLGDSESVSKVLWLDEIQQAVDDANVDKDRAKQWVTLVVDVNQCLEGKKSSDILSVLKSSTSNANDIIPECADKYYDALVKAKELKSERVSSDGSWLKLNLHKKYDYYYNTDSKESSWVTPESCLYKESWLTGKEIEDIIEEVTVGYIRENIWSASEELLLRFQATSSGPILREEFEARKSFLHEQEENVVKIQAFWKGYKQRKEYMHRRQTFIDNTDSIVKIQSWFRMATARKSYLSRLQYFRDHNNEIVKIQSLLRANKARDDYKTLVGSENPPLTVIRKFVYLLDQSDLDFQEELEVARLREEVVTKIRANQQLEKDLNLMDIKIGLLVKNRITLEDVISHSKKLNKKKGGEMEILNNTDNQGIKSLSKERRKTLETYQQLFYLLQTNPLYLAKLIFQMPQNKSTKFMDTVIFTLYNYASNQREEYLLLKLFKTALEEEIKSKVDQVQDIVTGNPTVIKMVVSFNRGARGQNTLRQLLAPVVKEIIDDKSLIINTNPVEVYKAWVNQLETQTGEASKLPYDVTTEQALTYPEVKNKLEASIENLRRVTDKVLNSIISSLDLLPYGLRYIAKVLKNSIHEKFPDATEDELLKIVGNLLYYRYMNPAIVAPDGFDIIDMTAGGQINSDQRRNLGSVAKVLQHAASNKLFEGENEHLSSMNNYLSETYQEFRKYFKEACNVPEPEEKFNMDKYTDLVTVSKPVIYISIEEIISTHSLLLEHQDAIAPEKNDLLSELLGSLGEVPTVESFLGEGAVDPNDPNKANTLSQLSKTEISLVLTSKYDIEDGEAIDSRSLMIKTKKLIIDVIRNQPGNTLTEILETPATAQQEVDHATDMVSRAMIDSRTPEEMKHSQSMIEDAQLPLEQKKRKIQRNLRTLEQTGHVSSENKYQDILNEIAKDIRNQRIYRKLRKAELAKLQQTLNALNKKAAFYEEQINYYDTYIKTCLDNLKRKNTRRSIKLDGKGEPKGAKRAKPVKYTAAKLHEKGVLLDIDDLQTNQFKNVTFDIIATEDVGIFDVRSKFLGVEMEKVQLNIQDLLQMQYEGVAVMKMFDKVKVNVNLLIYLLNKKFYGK
UniProt Q3UQ44: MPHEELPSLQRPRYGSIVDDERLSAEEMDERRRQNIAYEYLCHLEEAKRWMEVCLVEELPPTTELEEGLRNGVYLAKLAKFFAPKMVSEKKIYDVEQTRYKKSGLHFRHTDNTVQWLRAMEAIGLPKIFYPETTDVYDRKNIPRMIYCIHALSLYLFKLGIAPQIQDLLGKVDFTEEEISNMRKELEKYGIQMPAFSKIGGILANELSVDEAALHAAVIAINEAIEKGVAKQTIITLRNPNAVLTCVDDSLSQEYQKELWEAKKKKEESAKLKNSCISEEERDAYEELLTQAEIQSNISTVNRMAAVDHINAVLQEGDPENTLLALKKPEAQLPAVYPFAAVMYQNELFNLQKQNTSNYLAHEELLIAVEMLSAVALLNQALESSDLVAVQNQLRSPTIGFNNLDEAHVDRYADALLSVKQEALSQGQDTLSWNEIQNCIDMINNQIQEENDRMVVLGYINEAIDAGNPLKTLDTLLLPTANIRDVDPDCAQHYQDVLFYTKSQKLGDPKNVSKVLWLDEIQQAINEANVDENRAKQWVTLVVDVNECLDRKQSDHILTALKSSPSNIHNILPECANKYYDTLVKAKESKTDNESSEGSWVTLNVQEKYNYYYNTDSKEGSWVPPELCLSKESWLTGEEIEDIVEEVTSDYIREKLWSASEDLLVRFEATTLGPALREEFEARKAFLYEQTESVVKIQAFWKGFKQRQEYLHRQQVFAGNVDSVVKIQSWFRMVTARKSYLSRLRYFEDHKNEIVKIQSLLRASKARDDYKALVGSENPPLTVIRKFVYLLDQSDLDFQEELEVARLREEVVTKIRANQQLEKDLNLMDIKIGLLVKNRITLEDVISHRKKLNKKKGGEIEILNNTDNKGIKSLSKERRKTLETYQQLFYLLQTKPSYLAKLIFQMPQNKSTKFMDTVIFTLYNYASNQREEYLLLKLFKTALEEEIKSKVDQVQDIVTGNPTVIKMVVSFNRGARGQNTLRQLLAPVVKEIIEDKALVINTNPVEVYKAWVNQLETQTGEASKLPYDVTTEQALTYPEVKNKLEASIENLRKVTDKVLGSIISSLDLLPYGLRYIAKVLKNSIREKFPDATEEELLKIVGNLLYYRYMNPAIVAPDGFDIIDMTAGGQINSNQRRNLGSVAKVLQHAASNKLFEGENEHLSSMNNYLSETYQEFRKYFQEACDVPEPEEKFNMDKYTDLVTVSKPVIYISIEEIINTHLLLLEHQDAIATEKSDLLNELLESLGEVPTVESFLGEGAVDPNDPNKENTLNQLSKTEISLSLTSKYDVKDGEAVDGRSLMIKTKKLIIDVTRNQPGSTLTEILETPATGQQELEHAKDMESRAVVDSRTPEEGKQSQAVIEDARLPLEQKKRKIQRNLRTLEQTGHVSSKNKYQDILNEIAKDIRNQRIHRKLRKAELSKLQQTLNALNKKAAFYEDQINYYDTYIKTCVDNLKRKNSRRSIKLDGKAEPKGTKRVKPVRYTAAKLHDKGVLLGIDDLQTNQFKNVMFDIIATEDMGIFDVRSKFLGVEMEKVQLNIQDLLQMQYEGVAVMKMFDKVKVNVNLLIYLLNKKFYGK
UniProt P35568: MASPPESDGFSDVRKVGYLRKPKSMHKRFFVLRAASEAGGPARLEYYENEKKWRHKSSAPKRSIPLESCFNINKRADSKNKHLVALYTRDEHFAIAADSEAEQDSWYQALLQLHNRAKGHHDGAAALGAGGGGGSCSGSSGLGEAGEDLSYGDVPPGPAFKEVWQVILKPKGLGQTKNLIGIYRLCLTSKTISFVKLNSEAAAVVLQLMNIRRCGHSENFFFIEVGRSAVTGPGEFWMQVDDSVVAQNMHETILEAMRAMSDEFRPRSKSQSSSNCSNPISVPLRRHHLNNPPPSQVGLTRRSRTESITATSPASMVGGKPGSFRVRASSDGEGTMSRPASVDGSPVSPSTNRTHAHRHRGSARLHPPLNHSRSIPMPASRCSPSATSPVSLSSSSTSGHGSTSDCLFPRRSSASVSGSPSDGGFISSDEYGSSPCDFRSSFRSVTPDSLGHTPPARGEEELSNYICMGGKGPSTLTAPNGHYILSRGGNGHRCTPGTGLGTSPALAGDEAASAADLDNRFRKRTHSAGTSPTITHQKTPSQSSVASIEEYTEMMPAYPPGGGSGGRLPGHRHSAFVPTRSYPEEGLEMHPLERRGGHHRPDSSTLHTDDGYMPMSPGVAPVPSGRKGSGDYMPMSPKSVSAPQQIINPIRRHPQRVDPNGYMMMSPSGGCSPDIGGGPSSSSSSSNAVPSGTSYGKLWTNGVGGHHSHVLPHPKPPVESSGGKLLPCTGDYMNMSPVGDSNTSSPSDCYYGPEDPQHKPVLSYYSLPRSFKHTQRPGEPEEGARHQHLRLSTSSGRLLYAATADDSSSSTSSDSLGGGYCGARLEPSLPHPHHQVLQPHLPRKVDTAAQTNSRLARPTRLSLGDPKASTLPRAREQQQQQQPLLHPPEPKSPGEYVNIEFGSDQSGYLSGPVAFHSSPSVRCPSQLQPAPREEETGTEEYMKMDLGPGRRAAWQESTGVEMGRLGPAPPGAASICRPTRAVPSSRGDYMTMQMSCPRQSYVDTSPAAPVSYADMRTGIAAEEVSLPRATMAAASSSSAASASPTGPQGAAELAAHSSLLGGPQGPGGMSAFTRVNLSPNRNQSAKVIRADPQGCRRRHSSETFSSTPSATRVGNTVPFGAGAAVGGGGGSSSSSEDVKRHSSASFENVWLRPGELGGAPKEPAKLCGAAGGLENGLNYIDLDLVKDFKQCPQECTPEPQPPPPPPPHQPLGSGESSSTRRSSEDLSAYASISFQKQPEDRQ

For “insulin receptor substrate 1 (IRS1), in HEK293T cells (from UniProt P35568 1-1242)”, the binding [1] was “binds”.

B1: glycogen synthase (GYS2), in HEK293T cells (protein, UniProt P54840 1-703)
chain: MLRGRSLSVTSLGGLPQWEVEELPVEELLLFEVAWEVTNKVGGIYTVIQTKAKTTADEWGENYFLIGPYFEHNMKTQVEQCEPVNDAVRRAVDAMNKHGCQVHFGRWLIEGSPYVVLFDIGYSAWNLDRWKGDLWEACSVGIPYHDREANDMLIFGSLTAWFLKEVTDHADGKYVVAQFHEWQAGIGLILSRARKLPIATIFTTHATLLGRYLCAANIDFYNHLDKFNIDKEAGERQIYHRYCMERASVHCAHVFTTVSEITAIEAEHMLKRKPDVVTPNGLNVKKFSAVHEFQNLHAMYKARIQDFVRGHFYGHLDFDLEKTLFLFIAGRYEFSNKGADIFLESLSRLNFLLRMHKSDITVMVFFIMPAKTNNFNVETLKGQAVRKQLWDVAHSVKEKFGKKLYDALLRGEIPDLNDILDRDDLTIMKRAIFSTQRQSLPPVTTHNMIDDSTDPILSTIRRIGLFNNRTDRVKVILHPEFLSSTSPLLPMDYEEFVRGCHLGVFPSYYEPWGYTPAECTVMGIPSVTTNLSGFGCFMQEHVADPTAYGIYIVDRRFRSPDDSCNQLTKFLYGFCKQSRRQRIIQRNRTERLSDLLDWRYLGRYYQHARHLTLSRAFPDKFHVELTSPPTTEGFKYPRPSSVPPSPSGSQASSPQSSDVEDEVEDERYDEEEEAERDRLNIKSPFSLSHVPHGKKKLHGEYKN
In the case of B1, the binding [2] is reported as “binds”.

B2: glycogen synthase (GYS2), mouse liver (protein, UniProt Q8VCB3 1-704)
chain: MLRGRSLSVTSLGGLPVWEAERLPVEDLLLFEVSWEVTNKVGGICTVIQTKAKTTADEWGENYFLIGPYFEHNMKTQVEQCEPTNDAVRKAVDAMNKHGCQVHFGRWLIEGSPYVVLFDISSSAWNLDRWKGDFWEACGVGIPHHDREANDMLIFGSLTAWFLKEVTDHADGKHVIAQFHEWQAGTGLILSRARKLPIATVFTTHATLLGRYLCAANIDFYNQLDKFDIDKEAGERQIYHRYCMERASVHCAHVFTTVSEITAIEAEHMLKRKPDVVTPNGLNVKKFSAVHEFQNLHAMYKARIQDFVRGHFYGHLDFDLEKTLFLFIAGRYEFSNKGADIFLESLSRLNFLLRMHKSNVTVVVFFIMPAKTNNFNVETLKGQAVRKQLWDTVHCLKEKFGKKLYDGLLRGEIPDMNSILDRDDLTIMKRAIFSTQRQSLPPVTTHNMIDDSTDPILSTIRRIGLFNNRADRVKVILHPEFLSSTSPLLPMDYEEFVRGCHLGVFPSYYEPWGYTPAECTVMGIPSVTTNLSGFGCFVQEHVADPTAYGIYIVDRRFRSPDDSCNQLTQFLYGFCKQSRRQRIIQRNRTERLSDLLDWRYLGRYYQHARHLTLSRAFPDKFHLEPTSPPTTDGFKYPRPSSVPPSPSGSQASSPQCSDAEDEEDEDERYDEEEEAERDRLNIKSPFSLNHFPKGKKKLHGEYKN
B2 was tested, and the binding [3] was “binds”.
